For this data set, the target named is T1, DIS3 ΔNLS D146N+D487N-mVenus (Mus musculus) (UniProt Q9CSH3).
T1 sequence (looked up, limits assumed): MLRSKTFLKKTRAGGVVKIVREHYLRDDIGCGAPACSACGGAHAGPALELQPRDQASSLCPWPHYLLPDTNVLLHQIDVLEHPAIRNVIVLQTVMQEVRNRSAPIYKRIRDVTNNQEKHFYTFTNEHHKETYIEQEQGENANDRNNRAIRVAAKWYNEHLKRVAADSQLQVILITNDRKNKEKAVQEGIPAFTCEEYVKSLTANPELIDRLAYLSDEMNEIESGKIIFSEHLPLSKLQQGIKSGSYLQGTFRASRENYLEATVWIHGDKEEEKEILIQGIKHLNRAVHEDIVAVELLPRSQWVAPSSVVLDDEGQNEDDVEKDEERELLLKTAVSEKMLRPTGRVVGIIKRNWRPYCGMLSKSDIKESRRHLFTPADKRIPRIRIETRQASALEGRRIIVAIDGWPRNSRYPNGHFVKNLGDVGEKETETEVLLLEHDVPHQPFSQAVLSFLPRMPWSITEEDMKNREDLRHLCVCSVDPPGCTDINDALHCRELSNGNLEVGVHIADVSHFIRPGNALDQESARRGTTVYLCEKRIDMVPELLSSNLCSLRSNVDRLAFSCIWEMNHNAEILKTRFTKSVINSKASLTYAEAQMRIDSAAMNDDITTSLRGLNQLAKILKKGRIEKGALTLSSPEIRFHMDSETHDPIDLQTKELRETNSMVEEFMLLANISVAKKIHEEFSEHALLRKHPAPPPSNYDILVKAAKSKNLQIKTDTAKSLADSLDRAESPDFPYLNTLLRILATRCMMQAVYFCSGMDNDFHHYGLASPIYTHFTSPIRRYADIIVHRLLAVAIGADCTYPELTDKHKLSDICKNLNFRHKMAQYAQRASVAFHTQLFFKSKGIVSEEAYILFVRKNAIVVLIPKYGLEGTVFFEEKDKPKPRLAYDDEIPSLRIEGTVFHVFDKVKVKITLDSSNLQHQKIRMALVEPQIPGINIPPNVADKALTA
The data set can be described thus: EMSA. The conditions noted are these: 5 mM Mg2+, supershifted by anti-FLAG; LightShift RNA EMSA 1X binding buffer, 2.5% added glycerol, 5 mM MgCl2, RNase inhibitor, 1 ng biotin probe per 20 uL, 1 uL extract (1 mg/mL), 30 min room temperature; protein in an extract; protein details: mVenus with FLAG epitope (anti-FLAG); label: biotin (random internal Bio-11-CTP and Bio-11-UTP).

This note sets out measurements from paper PMC10387129.

For at least one entry, the source does not settle the construct or the ends of the probe. Where cells or extracts were used, other partners may take part. Tags and fusion partners may be left off the protein sequences shown.

Consider “GGGGUUAUUGGAGCACUUCCGUGGGUAGUGAACUCAGCUAGCGUGGCCACACCAGCACCGGCACAGAGCCUGCAGGUCCAAGCCGUGACUCCCCAGCUCUUGUUGAAUGCCCAGGGCCAGGUGACCCUUUAGUGAGGGUUAAUU [Pou6f1 exon 8 RNA probe]”, for which the binding result was “binds”.
